Reference: the supplement of paper PMC10849652
This is one part of the list.

Amino acid sequences for entries named in this document (tags omitted). A change or cut given only in a name is not applied to a line headed by its entry.
UniProt Q08334: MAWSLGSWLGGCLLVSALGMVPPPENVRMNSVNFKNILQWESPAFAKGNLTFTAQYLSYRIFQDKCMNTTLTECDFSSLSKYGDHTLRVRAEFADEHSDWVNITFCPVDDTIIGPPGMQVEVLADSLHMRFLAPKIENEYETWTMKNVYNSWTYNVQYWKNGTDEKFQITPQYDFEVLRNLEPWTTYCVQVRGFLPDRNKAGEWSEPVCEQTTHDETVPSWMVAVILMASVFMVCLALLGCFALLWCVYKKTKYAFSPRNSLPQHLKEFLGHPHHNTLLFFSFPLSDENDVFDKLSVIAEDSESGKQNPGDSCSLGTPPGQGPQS
UniProt Q7Z6Z7, whole entry, looked up: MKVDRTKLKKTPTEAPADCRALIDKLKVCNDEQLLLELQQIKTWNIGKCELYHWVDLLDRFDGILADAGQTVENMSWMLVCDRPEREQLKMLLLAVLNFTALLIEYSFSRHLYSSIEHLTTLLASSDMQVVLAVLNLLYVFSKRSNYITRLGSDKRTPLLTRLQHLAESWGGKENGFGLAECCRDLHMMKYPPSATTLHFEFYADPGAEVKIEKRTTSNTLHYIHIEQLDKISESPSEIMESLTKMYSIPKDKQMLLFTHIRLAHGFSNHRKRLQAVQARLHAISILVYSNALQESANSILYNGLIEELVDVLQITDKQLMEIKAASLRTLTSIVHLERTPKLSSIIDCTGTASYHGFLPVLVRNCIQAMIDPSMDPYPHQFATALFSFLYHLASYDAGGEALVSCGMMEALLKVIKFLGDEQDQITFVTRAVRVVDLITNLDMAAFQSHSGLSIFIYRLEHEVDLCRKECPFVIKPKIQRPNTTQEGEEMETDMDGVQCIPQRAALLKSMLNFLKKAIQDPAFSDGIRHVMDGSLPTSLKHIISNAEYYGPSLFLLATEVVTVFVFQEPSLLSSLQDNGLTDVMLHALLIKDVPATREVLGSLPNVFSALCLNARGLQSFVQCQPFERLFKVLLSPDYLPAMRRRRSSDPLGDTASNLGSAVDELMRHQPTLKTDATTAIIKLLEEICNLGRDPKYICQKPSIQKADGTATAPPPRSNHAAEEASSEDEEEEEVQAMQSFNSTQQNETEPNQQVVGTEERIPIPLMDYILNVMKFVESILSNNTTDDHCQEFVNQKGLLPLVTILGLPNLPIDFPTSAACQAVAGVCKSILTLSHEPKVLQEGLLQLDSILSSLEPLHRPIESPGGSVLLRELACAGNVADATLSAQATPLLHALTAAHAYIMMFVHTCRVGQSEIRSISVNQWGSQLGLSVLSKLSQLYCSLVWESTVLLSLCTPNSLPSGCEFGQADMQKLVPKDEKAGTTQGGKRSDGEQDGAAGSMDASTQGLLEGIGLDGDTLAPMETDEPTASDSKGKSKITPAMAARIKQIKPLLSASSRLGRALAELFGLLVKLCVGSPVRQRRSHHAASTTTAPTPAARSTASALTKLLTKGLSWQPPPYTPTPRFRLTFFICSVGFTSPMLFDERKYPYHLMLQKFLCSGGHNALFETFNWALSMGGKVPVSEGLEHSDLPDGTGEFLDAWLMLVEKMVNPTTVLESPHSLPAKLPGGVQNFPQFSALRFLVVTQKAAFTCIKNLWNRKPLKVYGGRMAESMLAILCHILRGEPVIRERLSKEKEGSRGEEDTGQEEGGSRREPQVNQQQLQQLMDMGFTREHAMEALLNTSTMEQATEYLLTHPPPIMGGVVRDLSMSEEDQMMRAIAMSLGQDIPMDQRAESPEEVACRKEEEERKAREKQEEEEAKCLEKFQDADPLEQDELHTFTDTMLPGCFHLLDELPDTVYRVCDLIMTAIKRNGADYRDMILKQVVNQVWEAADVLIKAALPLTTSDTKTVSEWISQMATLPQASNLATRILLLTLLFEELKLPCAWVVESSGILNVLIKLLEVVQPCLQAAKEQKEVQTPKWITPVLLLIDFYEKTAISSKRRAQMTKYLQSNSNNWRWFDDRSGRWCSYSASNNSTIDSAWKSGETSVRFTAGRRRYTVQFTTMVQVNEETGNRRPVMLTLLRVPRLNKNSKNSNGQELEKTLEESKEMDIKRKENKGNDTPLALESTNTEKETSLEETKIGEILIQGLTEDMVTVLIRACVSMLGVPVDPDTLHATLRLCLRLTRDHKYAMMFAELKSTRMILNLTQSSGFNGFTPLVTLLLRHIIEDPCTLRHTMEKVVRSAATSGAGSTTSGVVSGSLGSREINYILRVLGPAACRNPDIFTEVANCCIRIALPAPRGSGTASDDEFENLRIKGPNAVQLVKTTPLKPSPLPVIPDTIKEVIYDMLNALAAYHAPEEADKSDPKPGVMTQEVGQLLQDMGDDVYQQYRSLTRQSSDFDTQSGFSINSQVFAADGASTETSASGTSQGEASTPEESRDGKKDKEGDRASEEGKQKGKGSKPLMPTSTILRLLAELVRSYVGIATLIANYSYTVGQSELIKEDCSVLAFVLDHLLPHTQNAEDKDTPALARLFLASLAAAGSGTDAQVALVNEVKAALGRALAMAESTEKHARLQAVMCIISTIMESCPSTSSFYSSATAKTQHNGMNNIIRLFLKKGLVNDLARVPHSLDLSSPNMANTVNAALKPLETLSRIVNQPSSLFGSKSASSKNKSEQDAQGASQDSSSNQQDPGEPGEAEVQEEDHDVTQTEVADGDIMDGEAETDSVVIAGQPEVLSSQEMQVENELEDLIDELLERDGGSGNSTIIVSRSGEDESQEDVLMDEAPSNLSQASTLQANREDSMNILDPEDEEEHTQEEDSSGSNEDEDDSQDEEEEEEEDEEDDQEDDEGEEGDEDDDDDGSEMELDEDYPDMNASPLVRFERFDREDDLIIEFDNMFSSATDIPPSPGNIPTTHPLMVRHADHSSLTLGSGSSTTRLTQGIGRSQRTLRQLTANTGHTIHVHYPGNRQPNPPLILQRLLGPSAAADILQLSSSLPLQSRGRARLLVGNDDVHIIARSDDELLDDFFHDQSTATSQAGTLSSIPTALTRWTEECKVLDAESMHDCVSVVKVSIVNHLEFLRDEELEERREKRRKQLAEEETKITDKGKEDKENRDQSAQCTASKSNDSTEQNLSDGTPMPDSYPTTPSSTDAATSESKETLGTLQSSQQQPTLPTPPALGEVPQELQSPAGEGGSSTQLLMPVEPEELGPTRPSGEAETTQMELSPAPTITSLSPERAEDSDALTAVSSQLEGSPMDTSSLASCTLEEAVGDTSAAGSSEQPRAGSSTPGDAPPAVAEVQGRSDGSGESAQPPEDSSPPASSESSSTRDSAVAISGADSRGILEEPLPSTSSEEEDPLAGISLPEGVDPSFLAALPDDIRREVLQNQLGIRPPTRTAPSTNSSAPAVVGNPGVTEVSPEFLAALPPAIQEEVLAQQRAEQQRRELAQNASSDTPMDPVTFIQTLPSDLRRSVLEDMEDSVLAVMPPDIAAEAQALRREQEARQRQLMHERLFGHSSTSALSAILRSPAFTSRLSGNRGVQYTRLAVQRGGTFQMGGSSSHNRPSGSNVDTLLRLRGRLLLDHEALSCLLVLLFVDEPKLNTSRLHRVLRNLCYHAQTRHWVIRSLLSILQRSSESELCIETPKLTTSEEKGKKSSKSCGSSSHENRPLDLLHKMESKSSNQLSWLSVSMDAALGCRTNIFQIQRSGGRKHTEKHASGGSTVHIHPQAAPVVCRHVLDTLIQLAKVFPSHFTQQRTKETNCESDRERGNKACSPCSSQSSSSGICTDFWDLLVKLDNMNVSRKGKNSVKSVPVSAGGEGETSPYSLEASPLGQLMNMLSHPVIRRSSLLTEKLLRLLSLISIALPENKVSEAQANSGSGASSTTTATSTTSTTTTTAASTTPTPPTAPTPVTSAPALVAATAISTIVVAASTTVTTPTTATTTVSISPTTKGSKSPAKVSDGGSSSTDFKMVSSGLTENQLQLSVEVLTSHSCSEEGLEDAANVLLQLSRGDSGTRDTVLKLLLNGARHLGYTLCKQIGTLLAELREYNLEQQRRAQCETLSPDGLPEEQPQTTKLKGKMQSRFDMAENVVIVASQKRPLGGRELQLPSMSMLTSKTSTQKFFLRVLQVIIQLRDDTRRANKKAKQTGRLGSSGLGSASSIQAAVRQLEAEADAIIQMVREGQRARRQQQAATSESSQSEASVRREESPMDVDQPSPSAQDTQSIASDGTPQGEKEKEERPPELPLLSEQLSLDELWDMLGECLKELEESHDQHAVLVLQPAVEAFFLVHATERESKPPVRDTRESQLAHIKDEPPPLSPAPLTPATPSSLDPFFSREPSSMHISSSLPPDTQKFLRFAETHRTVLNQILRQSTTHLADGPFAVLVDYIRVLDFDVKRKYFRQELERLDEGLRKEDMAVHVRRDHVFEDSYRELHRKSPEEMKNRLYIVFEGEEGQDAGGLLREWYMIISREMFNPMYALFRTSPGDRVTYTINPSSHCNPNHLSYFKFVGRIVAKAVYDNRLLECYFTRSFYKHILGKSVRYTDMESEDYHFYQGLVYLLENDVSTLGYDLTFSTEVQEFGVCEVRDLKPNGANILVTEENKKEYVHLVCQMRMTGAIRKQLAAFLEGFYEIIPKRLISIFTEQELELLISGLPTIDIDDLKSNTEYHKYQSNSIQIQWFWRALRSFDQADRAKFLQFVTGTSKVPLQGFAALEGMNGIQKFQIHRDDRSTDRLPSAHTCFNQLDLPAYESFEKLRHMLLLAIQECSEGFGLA
UniProt Q9BYX4: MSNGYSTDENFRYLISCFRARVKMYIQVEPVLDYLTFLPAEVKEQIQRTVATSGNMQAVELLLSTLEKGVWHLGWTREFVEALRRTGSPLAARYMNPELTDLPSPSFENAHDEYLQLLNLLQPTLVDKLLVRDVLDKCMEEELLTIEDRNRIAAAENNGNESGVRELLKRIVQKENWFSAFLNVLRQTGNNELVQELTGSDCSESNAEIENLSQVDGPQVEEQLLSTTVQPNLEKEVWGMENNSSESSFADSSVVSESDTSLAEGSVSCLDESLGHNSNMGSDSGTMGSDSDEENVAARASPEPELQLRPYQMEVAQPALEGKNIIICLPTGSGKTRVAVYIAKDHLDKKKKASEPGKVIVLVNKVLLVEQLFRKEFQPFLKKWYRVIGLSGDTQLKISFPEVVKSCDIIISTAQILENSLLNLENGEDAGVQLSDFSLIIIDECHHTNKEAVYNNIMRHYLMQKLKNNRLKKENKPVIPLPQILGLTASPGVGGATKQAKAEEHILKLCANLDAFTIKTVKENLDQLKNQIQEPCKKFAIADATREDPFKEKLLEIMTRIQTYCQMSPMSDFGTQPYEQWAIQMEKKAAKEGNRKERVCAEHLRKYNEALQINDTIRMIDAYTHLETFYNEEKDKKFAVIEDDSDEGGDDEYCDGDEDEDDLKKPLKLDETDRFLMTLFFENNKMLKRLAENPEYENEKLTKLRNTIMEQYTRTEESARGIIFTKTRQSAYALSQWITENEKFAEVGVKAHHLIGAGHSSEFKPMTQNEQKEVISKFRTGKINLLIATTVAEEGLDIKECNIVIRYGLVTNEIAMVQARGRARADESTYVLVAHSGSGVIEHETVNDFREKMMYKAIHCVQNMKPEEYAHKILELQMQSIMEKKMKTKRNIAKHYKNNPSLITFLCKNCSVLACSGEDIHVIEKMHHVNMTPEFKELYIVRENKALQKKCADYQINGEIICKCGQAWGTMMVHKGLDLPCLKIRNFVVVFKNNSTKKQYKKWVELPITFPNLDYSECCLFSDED
UniProt Q96D96: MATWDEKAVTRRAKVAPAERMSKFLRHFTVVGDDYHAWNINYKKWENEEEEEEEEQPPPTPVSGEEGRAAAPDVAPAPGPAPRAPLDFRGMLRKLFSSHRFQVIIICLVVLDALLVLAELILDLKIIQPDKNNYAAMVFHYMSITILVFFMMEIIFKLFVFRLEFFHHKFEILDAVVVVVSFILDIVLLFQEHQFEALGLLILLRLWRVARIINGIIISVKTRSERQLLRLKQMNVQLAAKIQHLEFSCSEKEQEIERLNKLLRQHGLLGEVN
UniProt Q96EW2: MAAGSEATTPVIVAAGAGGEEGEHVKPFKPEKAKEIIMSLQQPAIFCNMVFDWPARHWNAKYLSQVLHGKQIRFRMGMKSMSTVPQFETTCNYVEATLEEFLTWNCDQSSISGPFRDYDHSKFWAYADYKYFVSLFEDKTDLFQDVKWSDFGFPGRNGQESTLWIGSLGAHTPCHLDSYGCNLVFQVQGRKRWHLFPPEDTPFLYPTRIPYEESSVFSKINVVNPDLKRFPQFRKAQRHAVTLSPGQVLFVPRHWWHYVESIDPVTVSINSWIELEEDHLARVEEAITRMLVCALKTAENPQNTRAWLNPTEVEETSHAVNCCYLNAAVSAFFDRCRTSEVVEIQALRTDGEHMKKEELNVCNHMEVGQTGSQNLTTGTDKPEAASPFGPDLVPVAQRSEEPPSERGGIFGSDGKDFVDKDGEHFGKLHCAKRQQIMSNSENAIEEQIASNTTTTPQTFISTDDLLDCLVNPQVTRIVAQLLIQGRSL

Assays:
Test in all cases: log2 fold change, soluble protein after heating vs DMSO (PISA); higher = thermal stabilisation; K562 lysate, 10 uM; active = over 0.2 and 3.5 SD of the protein, either way, in both replicates (recomputed)
vemurafenib = compound: CCCS(=O)(=O)Nc1ccc(F)c(C(=O)c2c[nH]c3ncc(-c4ccc(Cl)cc4)cc23)c1F [vemurafenib]
Procedure, shortened: (§1)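 Soluble protein was defined as the supernatant remaining after 21,000xg for 90 min, following pooling of heated aliquots and adjustment to 0.5% NP-40 at 4°C. Before that, crude K562 extract at 1 mg/mL protein in PBS pH 7.4 with 1 mM MgCl2 was treated with 10 μM compound for 30 min and heated for 3 min across 48°C-58°C. Quantification used TMTpro 16plex LC-MS/MS with channel sums equalised, and values are log-two fold changes in thermal stability relative to solvent controls from duplicates.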

[1] = compound: CCCS(=O)(=O)Nc1ccc(F)c(C(=O)c2c[nH]c3ncc(Cl)cc23)c1F
Procedure, shortened: as §1

barasertib = compound: CCN(CCCOc1ccc2c(Nc3cc(CC(=O)Nc4cccc(F)c4)[nH]n3)ncnc2c1)CCOP(=O)(O)O [barasertib]
Procedure, shortened: as §1

[2] = compound: CC[C@@H]1C(=O)N(C)c2cnc(Nc3ccc(C(=O)NC4CCN(C)CC4)cc3OC)nc2N1C1CCCC1
Procedure, shortened: as §1

volasertib = compound: CC[C@@H]1C(=O)N(C)c2cnc(Nc3ccc(C(=O)N[C@H]4CC[C@H](N5CCN(CC6CC6)CC5)CC4)cc3OC)nc2N1C(C)C [volasertib]
Procedure, shortened: as §1

[3] = compound: CCn1c(C(=O)N(C2CC2)C2CC2)cc2c3c(ncn3C)c(Nc3cc(C)n(C)n3)nc21
Procedure, shortened: as §1

[4] = compound: CCn1cc(-c2ccnc3[nH]c(-c4cccc(CN(C)C)c4)cc23)c(-c2ccc(NC(=O)N(C)C)cc2)n1
Procedure, shortened: as §1

[5] = compound: CN1CCC(CNc2ccc3ncc(-c4cccc(OC(F)(F)F)c4)n3n2)CC1
Procedure, shortened: as §1

saracatinib = compound: CN1CCN(CCOc2cc(OC3CCOCC3)c3c(Nc4c(Cl)ccc5c4OCO5)ncnc3c2)CC1 [saracatinib]
Procedure, shortened: as §1

sotrastaurin = compound: CN1CCN(c2nc(C3=C(c4c[nH]c5ccccc45)C(=O)NC3=O)c3ccccc3n2)CC1 [sotrastaurin]
Procedure, shortened: as §1

Target | log2 fold change (vemurafenib) | log2 fold change [1] | log2 fold change (barasertib) | log2 fold change [2] | log2 fold change (volasertib) | log2 fold change [3] | log2 fold change [4] | log2 fold change [5] | log2 fold change (saracatinib) | log2 fold change (sotrastaurin)
INPP4A (UniProt Q96PE3) | inactive: -0.03 | inactive: 0.011 | active: 0.382 | inactive: -0.017 | inactive: -0.034 | inactive: 0.031 | inactive: 0.021 | inactive: 0.015 | inactive: -0.025 | inactive: -0.008
IFRD2 isoform 2 (UniProt Q12894) | inactive: 0.027 | inactive: -0.069 | inactive: -0.17 | inactive: 0.042 | inactive: -0.011 | inactive: 0.004 | inactive: -0.179 | inactive: 0.062 | inactive: -0.062 | inactive: -0.02
HYDIN (UniProt Q4G0P3) | inactive: -0.075 | inactive: 0.081 | – | inactive: 0.089 | inactive: 0.021 | inactive: 0.76 | – | – | inactive: 0.028 | –
IFITM3 (UniProt Q01628) | inactive: -0.046 | inactive: 0.079 | inactive: 0.342 | inactive: -0.06 | inactive: -0.025 | inactive: 0.026 | inactive: -0.11 | inactive: 0.112 | inactive: -0.041 | inactive: 0.052
ILF2 (UniProt Q12905) | inactive: 0.004 | inactive: 0.015 | inactive: -0.004 | inactive: 0.038 | inactive: 0.005 | inactive: -0.013 | inactive: 0.02 | inactive: -0.022 | inactive: -0.008 | inactive: -0.009
INPP5A (UniProt Q14642) | inactive: -0.044 | – | inactive: -0.035 | inactive: -0.068 | – | inactive: 0.154 | inactive: -0.054 | inactive: 0.152 | inactive: 0.115 | –
HTD2 (UniProt P86397) | inactive: -0.013 | inactive: 0 | inactive: 0.128 | inactive: -0.065 | inactive: 0 | inactive: 0.128 | inactive: -0.037 | inactive: 0.026 | – | inactive: 0.038
IL10RB (UniProt Q08334) | inactive: 0.129 | inactive: -0.007 | – | inactive: 0.046 | inactive: -0.007 | inactive: -0.02 | – | – | inactive: 0.04 | inactive: -0.163
INPP1 (UniProt P49441) | inactive: -0.015 | inactive: -0.012 | inactive: 0.044 | inactive: -0.053 | inactive: -0.02 | inactive: -0.005 | inactive: 0.003 | inactive: 0.026 | inactive: 0.035 | inactive: 0.044
HTR1F (UniProt P30939) | inactive: -0.016 | – | inactive: 0.024 | – | – | – | – | – | – | –
ICA1 (UniProt Q05084) | inactive: 0.065 | inactive: 0.008 | inactive: 0.061 | inactive: -0.001 | inactive: -0.017 | inactive: -0.031 | inactive: 0.022 | inactive: -0.052 | inactive: 0.01 | inactive: -0.019
HUWE1 (UniProt Q7Z6Z7) | inactive: 0.012 | inactive: 0.012 | inactive: 0.002 | inactive: 0.003 | inactive: 0 | inactive: 0.004 | inactive: -0.025 | inactive: 0.011 | inactive: -0.003 | inactive: 0
INPP5K (UniProt Q9BT40) | inactive: 0.022 | inactive: -0.002 | inactive: 0.072 | inactive: -0.082 | inactive: -0.009 | inactive: -0.088 | inactive: -0.059 | inactive: 0.097 | inactive: -0.04 | inactive: 0.022
IMMT (UniProt Q16891) | inactive: -0.016 | inactive: -0.006 | inactive: 0.004 | inactive: -0.046 | inactive: 0.015 | inactive: 0.015 | inactive: -0.005 | active: -0.212 | inactive: 0.01 | inactive: -0.012
ILK (UniProt Q13418) | inactive: 0.029 | inactive: -0.024 | inactive: 0.059 | inactive: -0.03 | inactive: -0.072 | inactive: 0.016 | inactive: -0.034 | inactive: -0.019 | inactive: 0.011 | inactive: -0.002
IGF2BP2 isoform 6 (UniProt Q9Y6M1) | – | inactive: -0.003 | – | – | inactive: -0.153 | – | – | – | – | –
IFT57 (UniProt Q9NWB7) | – | inactive: 0.137 | – | inactive: -0.224 | inactive: 0.115 | inactive: 0.05 | – | – | inactive: -0.02 | inactive: 0.012

A second format for part of the listing above:

| Target | log2 fold change (vemurafenib) | log2 fold change [1] | log2 fold change (barasertib) | log2 fold change [2] | log2 fold change (volasertib) | log2 fold change [3] | log2 fold change [4] | log2 fold change [5] | log2 fold change (saracatinib) | log2 fold change (sotrastaurin) |
| --- | --- | --- | --- | --- | --- | --- | --- | --- | --- | --- |
| ILF2 (UniProt Q12905) | inactive: 0.004 | inactive: 0.015 | inactive: -0.004 | inactive: 0.038 | inactive: 0.005 | inactive: -0.013 | inactive: 0.02 | inactive: -0.022 | inactive: -0.008 | inactive: -0.009 |
| INPP5A (UniProt Q14642) | inactive: -0.044 | – | inactive: -0.035 | inactive: -0.068 | – | inactive: 0.154 | inactive: -0.054 | inactive: 0.152 | inactive: 0.115 | – |

Later entries

Target | log2 fold change (vemurafenib) | log2 fold change [1] | log2 fold change (barasertib) | log2 fold change [2] | log2 fold change (volasertib) | log2 fold change [3] | log2 fold change [4] | log2 fold change [5] | log2 fold change (saracatinib) | log2 fold change (sotrastaurin)
IGHMBP2 (UniProt P38935) | – | inactive: -0.056 | inactive: -0.043 | inactive: -0.211 | inactive: -0.043 | – | – | – | inactive: 0.134 | inactive: -0.004
ICMT (UniProt O60725) | inactive: 0.12 | – | inactive: 0.018 | inactive: 0.208 | – | inactive: -0.037 | – | – | inactive: -0.053 | inactive: -0.039
IFIH1 (UniProt Q9BYX4) | – | inactive: 0.05 | inactive: 0.19 | inactive: 0 | inactive: -0.012 | – | inactive: 0.093 | inactive: -0.515 | – | –
IL17RA (UniProt Q96F46) | – | inactive: 0.122 | inactive: 0.361 | inactive: 0.079 | inactive: -0.119 | – | inactive: 0.035 | inactive: 0.05 | inactive: 0 | inactive: 0.08
IFT43 (UniProt Q96FT9) | inactive: -0.096 | – | inactive: 0.098 | – | – | inactive: 0.21 | – | – | inactive: 0.028 | inactive: -0.052
HSPH1 (UniProt Q5TBM3) | – | inactive: 0.039 | inactive: -0.185 | – | inactive: -0.086 | inactive: 0.017 | inactive: 0.057 | inactive: 0.072 | – | –
HSPA8 (UniProt E9PN89) | – | inactive: -0.06 | inactive: -0.041 | inactive: 0.057 | inactive: -0.005 | inactive: -0.114 | inactive: -0.366 | inactive: 0.32 | inactive: -0.01 | inactive: 0.308
IGKC (UniProt P01834) | – | inactive: 0.074 | inactive: -0.106 | inactive: -0.056 | inactive: 0.06 | inactive: 0.063 | inactive: 0.605 | inactive: -0.211 | inactive: -0.094 | –
HTT (UniProt P42858) | inactive: -0.083 | – | inactive: 0.044 | inactive: -0.063 | – | inactive: 0.052 | inactive: -0.039 | inactive: 0.152 | inactive: -0.033 | inactive: 0.01
HSPH1 isoform 2 (UniProt Q92598) | – | inactive: 0.019 | inactive: -0.123 | inactive: 0.061 | inactive: 0.135 | inactive: 0.021 | – | – | inactive: -0.003 | –
HVCN1 (UniProt Q96D96) | – | inactive: 0.094 | inactive: 0.072 | inactive: 0.014 | inactive: -0.072 | – | inactive: -0.135 | inactive: 0.229 | – | –
INO80C isoform 4 (UniProt Q6PI98) | – | inactive: 0.03 | inactive: 0.012 | – | inactive: 0.063 | inactive: -0.088 | – | – | inactive: 0.127 | –
HSPBAP1 (UniProt Q96EW2) | – | inactive: 0.04 | inactive: 0.012 | inactive: 0.155 | inactive: 0.044 | inactive: -0.058 | inactive: -0.293 | inactive: -0.038 | inactive: -0.054 | inactive: 0.027
IGHG1 (UniProt P01857) | inactive: -0.274 | – | inactive: 0.026 | – | – | inactive: -0.018 | inactive: 0.245 | inactive: -0.168 | inactive: -0.076 | inactive: -0.121
IGSF1 isoform 4 (UniProt Q8N6C5) | inactive: -0.033 | – | – | inactive: 0.067 | – | – | inactive: 0.006 | inactive: 0.082 | – | –
IGFBP4 (UniProt P22692) | – | inactive: -0.171 | inactive: -0.281 | – | inactive: -0.002 | inactive: 0.04 | inactive: -0.063 | inactive: 0.009 | inactive: 0.016 | inactive: -0.028
IFT172 (UniProt Q9UG01) | inactive: 0.026 | – | – | – | – | inactive: 0.392 | – | – | inactive: 0.189 | –
